Laboratory results: PubChem BioAssay AID1259254 (NCATS, 2017)

Aim: 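Genome-wide screen for genes that prevent DNA re-replication in cancer cells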 (primary screen)
System: human HCT116 colorectal cancer cells
Reagent: single siRNA against human genes
Timing: 3 days
Read-out: 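Imaged Hoechst DNA stain sorts each cell into a cycle phase by DNA amount; per plate, G2 fraction set to 0% for non-targeting and 100% for GMNN siRNA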
Scale: G2 robust z-score and G2 cells, % of GMNN control: higher = more G2 cells, more excess DNA replication
Call rule: 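An siRNA counts as active if its G2 robust z-score lies at least 5 MADs above the screen median; here such calls match roughly 38% of GMNN control or more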
This is a random part of about 59,000 reagents. Of all reagents, about 1,550 (2.6%) got an active call. 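G2 share is only a proxy for re-replication; each gene was hit by three separate siRNAs, and active genes were retested.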 Reagents against one gene are numbered here. Further read-outs or replicates are left out here. Not stated in the record: the amount of reagent.

G2 robust z-score	G2 cells, % of GMNN control	call	target gene	reagent no.
0.669	7.68	inactive	UQCRFS1P2 (GeneID 647123)	1
2.17	18.3	inactive	UQCRFS1P2 (GeneID 647123)	2
0.0624	3.41	inactive	UQCRFS1P2 (GeneID 647123)	3
2.07	17.5	inactive	SLC36A4 (GeneID 120103)	1
1.45	13.2	inactive	SLC36A4 (GeneID 120103)	2
-0.322	0.7	inactive	SLC36A4 (GeneID 120103)	3
2.05	17.4	inactive	SIGLEC5 (GeneID 8778)	1
1.69	14.9	inactive	SIGLEC5 (GeneID 8778)	2
-1.03	-4.25	inactive	SIGLEC5 (GeneID 8778)	3
-0.387	0.243	inactive	DNAJA2 (GeneID 10294)	1
-0.849	-3.01	inactive	DNAJA2 (GeneID 10294)	2
0.819	8.73	inactive	DNAJA2 (GeneID 10294)	3
1.54	13.8	inactive	NCBP3 (GeneID 55421)	1
-0.824	-2.83	inactive	NCBP3 (GeneID 55421)	2
-0.32	0.713	inactive	NCBP3 (GeneID 55421)	3
-1.05	-4.43	inactive	LRRK2 (GeneID 120892)	1
1.44	13.1	inactive	LRRK2 (GeneID 120892)	2
1.51	13.6	inactive	LRRK2 (GeneID 120892)	3
0.252	4.74	inactive	PLXDC1 (GeneID 57125)	1
0.081	3.54	inactive	PLXDC1 (GeneID 57125)	2
0.34	5.36	inactive	PLXDC1 (GeneID 57125)	3
-0.459	-0.265	inactive	HSP90B1 (GeneID 7184)	1
-0.687	-1.87	inactive	HSP90B1 (GeneID 7184)	2
0.0362	3.22	inactive	HSP90B1 (GeneID 7184)	3
-0.142	1.97	inactive	MYL1 (GeneID 4632)	1
1.59	14.2	inactive	MYL1 (GeneID 4632)	2
-0.0925	2.32	inactive	MYL1 (GeneID 4632)	3
-0.815	-2.76	inactive	TRPT1 (GeneID 83707)	1
-0.309	0.793	inactive	TRPT1 (GeneID 83707)	2
3.39	26.8	inactive	TRPT1 (GeneID 83707)	3

Targets listed so far whose gene name begins with L or l (3):
G2 robust z-score	G2 cells, % of GMNN control	call	target gene	reagent no.
-1.05	-4.43	inactive	LRRK2 (GeneID 120892)	1
1.44	13.1	inactive	LRRK2 (GeneID 120892)	2
1.51	13.6	inactive	LRRK2 (GeneID 120892)	3
